Test results: paper PMC9557730
Numbering of substitutions follows the chain as printed. Results are given in words; binding and its absence hold for the method and conditions named. In cells and extracts the contact can be indirect. Some results given as binding are weak or reduced against the parent protein; the word gives no strength. Sequences can lack the tags named with a protein.

Experiments:
Assay in all cases: co-IP; C-terminal 3x FLAG-tagged Tfb2 variants coexpressed with endogenous Tfb2 in yeast; whole-cell extract (50 mM Hepes pH 7.6, 250 mM KOAc) on FLAG-M2 agarose 2 h at 4 °C; eluted with triple FLAG peptide; Western blot for Ssl2, normalised to Tfb2
[1] = target: T1, Tfb2 E342R, C-terminal 3× FLAG-tagged (Saccharomyces cerevisiae) (UniProt Q02939)
T1 sequence: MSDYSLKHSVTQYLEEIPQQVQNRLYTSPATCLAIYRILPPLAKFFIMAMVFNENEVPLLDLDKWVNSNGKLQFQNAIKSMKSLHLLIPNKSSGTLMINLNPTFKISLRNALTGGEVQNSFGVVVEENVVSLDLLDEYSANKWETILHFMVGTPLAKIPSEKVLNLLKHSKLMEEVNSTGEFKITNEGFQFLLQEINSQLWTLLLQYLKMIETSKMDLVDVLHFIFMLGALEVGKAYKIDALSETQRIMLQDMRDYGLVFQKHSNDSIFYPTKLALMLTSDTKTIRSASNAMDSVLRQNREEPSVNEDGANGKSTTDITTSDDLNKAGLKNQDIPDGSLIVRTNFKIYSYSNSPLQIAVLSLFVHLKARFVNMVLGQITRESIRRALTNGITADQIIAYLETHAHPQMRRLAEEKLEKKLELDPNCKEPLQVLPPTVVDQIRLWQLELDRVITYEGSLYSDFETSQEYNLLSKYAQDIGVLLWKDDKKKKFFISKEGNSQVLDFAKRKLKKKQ

[2] = target: T2, Tfb2 E447K, C-terminal 3× FLAG-tagged (Saccharomyces cerevisiae) (UniProt Q02939)
T2 sequence: T1 sequence with R342E, E447K

[3] = target: T3, Tfb2 E342F, C-terminal 3× FLAG-tagged (Saccharomyces cerevisiae) (UniProt Q02939)
T3 sequence: T1 sequence with R342F

[4] = target: T4, Tfb2 YY348+350AA, C-terminal 3× FLAG-tagged (Saccharomyces cerevisiae) (UniProt Q02939)
T4 sequence: T1 sequence with R342E, Y348A, Y350A

B1: Ssl2 (protein, UniProt Q00578 1-843)
chain: MTDVEGYQPKSKGKIFPDMGESFFSSDEDSPATDAEIDENYDDNRETSEGRGERDTGAMVTGLKKPRKKTKSSRHTAADSSMNQMDAKDKALLQDTNSDIPADFVPDSVSGMFRSHDFSYLRLRPDHASRPLWISPSDGRIILESFSPLAEQAQDFLVTIAEPISRPSHIHEYKITAYSLYAAVSVGLETDDIISVLDRLSKVPVAESIINFIKGATISYGKVKLVIKHNRYFVETTQADILQMLLNDSVIGPLRIDSDHQVQPPEDVLQQQLQQTAGKPATNVNPNDVEAVFSAVIGGDNEREEEDDDIDAVHSFEIANESVEVVKKRCQEIDYPVLEEYDFRNDHRNPDLDIDLKPSTQIRPYQEKSLSKMFGNGRARSGIIVLPCGAGKTLVGITAACTIKKSVIVLCTSSVSVMQWRQQFLQWCTLQPENCAVFTSDNKEMFQTESGLVVSTYSMVANTRNRSHDSQKVMDFLTGREWGFIILDEVHVVPAAMFRRVVSTIAAHAKLGLTATLVREDDKIGDLNFLIGPKLYEANWMELSQKGHIANVQCAEVWCPMTAEFYQEYLRETARKRMLLYIMNPTKFQACQFLIQYHERRGDKIIVFSDNVYALQEYALKMGKPFIYGSTPQQERMNILQNFQYNDQINTIFLSKVGDTSIDLPEATCLIQISSHYGSRRQEAQRLGRILRAKRRNDEGFNAFFYSLVSKDTQEMYYSTKRQAFLVDQGYAFKVITHLHGMENIPNLAYASPRERRELLQEVLLKNEEAAGIEVGDDADNSVGRGSNGHKRFKSKAVRGEGSLSGLAGGEDMAYMEYSTNKNKELKEHHPLIRKMYYKNLKK
For B1, the binding [1] was “no binding”, the binding [2] was “binds” and the binding [3] was “no binding”. For the same binder, the binding [4] was “no binding”.
